Assay results taken from PubChem BioAssay AID2685 (National Center for Advancing Translational Sciences (NCATS), 2010).
This is one part of the list. These are further read-outs of the screen, such as a control signal, another cell line or another target. No call is given for them. Most of these compounds were active or inconclusive in the main read-out, so they are no random draw. Potencies come from curve fits of mixed quality, noted in brackets.

Assay: qHTS Assay for Lipid Storage Modulators in Drosophila S3 Cells;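 as to cell number change: cells counted by Cell Tracker Red CMTPX staining in the red channel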
Settings: BODIPY lipid droplet fluorescence, 18-24 h; for cell number change: measured here: cell count max response, cells fed with added oleic acid
Outline: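 Drosophila S3 cells loaded with oleic acid (400 uM, as added) and compounds at several concentrations; lipid droplets imaged by 488-nm laser-scanning cytometry, 500–530 nm intensity and object ratio to cell channel. Percent activity normalized to 20 uM Triacsin C.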

[1] = measured here: cell number channel AC50, cells fed with added oleic acid
[2] = measured here: lipid fluorescence (Fed channel) AC50, cells fed with added oleic acid

Row | Compound | cell number change | AC50 [1] | AC50 [2]
1 | O=C(O)C1C2CC2CN1C(=O)c1ccc(Cl)cc1 (centres undefined) | -13.8% | 3.66 µM [falling, single point] | 
2 | O=C(CN1CCCC1)NC1C2CC3CC(C2)CC1C3 (centres undefined) | 22% |  | 
3 | O=C(Cn1c(=O)n(Cc2ccccc2)c(=O)c2cc(Cl)ccc21)NCC1CCCO1 (centres undefined) | 6.31% |  | 6.51 µM [rising, single point]
4 | Cn1c(N)c(C(=O)COC(=O)CCc2nc3ccccc3s2)c(=O)n(C)c1=O | -112% | 29.1 µM [falling, single point] | 
5 | CC1=NN(C(=O)Cc2ccccc2)C(O)(c2cccnc2)C1 (centres undefined) |  |  | 0.58 µM [rising, single point]
6 | C=CCn1c2ccccc2c2nnc(SCc3ccc4nonc4c3)nc21 |  | 0.651 µM [rising, single point] | 0.651 µM [rising, single point]
7 | COc1ccccc1C(=O)N/N=C(\C)CC(=O)Nc1ccc(Nc2ccccc2)cc1 | 17.9% |  | 
8 | CC[C@H](CO)Nc1nc(Nc2cccc(Cl)c2)c2ncn(C(C)C)c2n1 | -10.1% |  | 0.731 µM [rising, single point]
9 | CC1(C)NC(=O)N(CC(O)CN(Cc2ccccc2)Cc2ccccc2)C1=O (centres undefined) | -114% | 20.6 µM [falling, single point] | 29.1 µM [falling, single point]
10 | CC1CCc2[nH]c3ccc(C(=O)O)cc3c2C1 (centres undefined) | 3.3% |  | 29.1 µM [falling, single point]
11 | CCOc1ccc(-n2c(COc3ccccc3)nnc2SCC(N)=O)cc1 | 5.06% |  | 0.517 µM [falling, partial curve]
12 | CCOC(=O)c1c(NC(=O)c2cccc(N3C(=O)CCC3=O)c2)sc2c1CCN(CC)C2 | -15.9% |  | 16.4 µM [falling, single point]
13 | O=c1oc(C2(O)CCCCC2)cc2ccc(Br)cc12 | 9.25% | 0.103 µM [falling, single point] | 
14 | Cc1ccc(S(=O)(=O)Cc2ccc(C(=O)N3CCN(Cc4ccccc4)CC3)o2)cc1 | 143% | 5.8 µM [rising, full curve] | 2.06 µM [rising, partial curve]
15 | CSc1cccc(CN2CCC(CO)(Cc3cccc(C(F)(F)F)c3)CC2)c1 | -24.9% |  | 29.1 µM [falling, single point]
16 | O=C(c1ccc(S(=O)(=O)Cc2cc(F)ccc2F)c([N+](=O)[O-])c1)N1CCCCC1 | -12.9% |  | 18.4 µM [falling, single point]
17 | N#CCSc1nc2sc3c(c2c(=O)n1C1CCCCC1)CCCC3 | 23.5% |  | 6.51 µM [rising, full curve]
18 | CCCCCCCCOc1ccc(C2OC34CCCCC3C(C#N)(C#N)C2(C#N)C(=N)O4)cc1 (centres undefined) | 18.1% |  | 
19 | Cc1ccc(N(CN2CCCC2=O)C(=O)c2ccc(C)c(C)c2)cc1 |  | 3.26 µM [rising, partial curve, poor fit] | 0.146 µM [rising, full curve, poor fit]
20 | CC(C)Cn1c(CN2CCCCC2C)nc2c1c(=O)n(C)c(=O)n2C (centres undefined) | -30.8% | 0.103 µM [falling, full curve, poor fit] | 16.4 µM [falling, partial curve]

Row | Compound | cell number change | AC50 [1] | AC50 [2]
21 | CC(OC(=O)c1cccc(S(=O)(=O)N2CCCCCC2)c1)C(=O)Nc1ccc(S(N)(=O)=O)cc1 (centres undefined) | -20.1% | 1.03 µM [falling, full curve, poor fit] | 29.1 µM [falling, single point]
22 | O=C(Nc1ccc(N2CCCCC2)c(Cl)c1)c1ccc2c(c1)OCCO2 | -14.5% |  | 0.116 µM [falling, full curve, poor fit]
23 | CC(C)N(Cc1cc2ccccc2[nH]c1=O)C(=O)C(C)(C)C | 21.1% | 0.116 µM [rising, full curve, poor fit] | 
24 | O=C(Nc1scc(-c2ccccc2)c1C(=O)O)c1ccco1 |  | 6.51 µM [falling, single point] | 
25 | CNS(=O)(=O)c1cccc(C(=O)OCC(=O)N2c3ccccc3CC2C)c1 (centres undefined) | -0.231% |  | 29.1 µM [rising, single point]
26 | O=S(=O)(Nc1ccc(-n2cccc2)cc1)c1ccc(Cl)c(Cl)c1 | -64.1% |  | 
27 | CC(=O)O[C@]1(C(C)=O)CCC2C3CCC4=C/C(=N/OCC(=O)O)CC[C@]4(C)C3CC[C@@]21C (some centres undefined) | 18.1% |  | 
28 | COc1cc(C)ccc1S(=O)(=O)NC1CC(C)(C)NC(C)(C)C1 | -6.67% |  | 
29 | CCOC(=O)c1ccc(S(=O)(=O)N2CCC(C(=O)O)CC2)cc1 | 8.56% |  | 0.291 µM [falling, full curve, poor fit]
30 | CCOC(=O)c1c(NS(=O)(=O)Cc2ccccc2)sc2c1CCCC2 | 87.9% | 14.6 µM [rising, partial curve] | 
31 | CN(C)CCN(C(=O)c1ccc2ccccc2c1)c1nc2ccc(F)cc2s1 | -7.95% | 0.13 µM [rising, full curve, poor fit] | 0.58 µM [rising, single point]
32 | Cc1ccc(NC(=O)CCc2ccc(S(=O)(=O)N3CCOCC3)cc2)c(C)c1 |  |  | 0.461 µM [rising, partial curve, poor fit]
33 | CCOC(=O)c1c(NC(=O)Cn2nnc3ccccc32)sc2c1CCC(C)C2 (centres undefined) | 8.96% |  | 0.259 µM [rising, full curve]
34 | Cc1cc(C)c(S(=O)(=O)NCCc2ccccc2)c(C)c1 | -33.4% | 16.4 µM [falling, single point] | 18.4 µM [falling, single point]
35 | c1ccc(C(c2ccccc2)c2noc(CN3CCC(c4ccncc4)CC3)n2)cc1 | 12.5% |  | 2.06 µM [rising, full curve, poor fit]
36 | COc1cccc(-c2cc(C(=O)Nc3nc4ccccc4s3)c3ccccc3n2)c1 | -24.9% |  | 10.3 µM [falling, partial curve]
37 | COc1cccc(NC(=O)CCN2C(=O)C3CC=CCC3C2=O)c1 (centres undefined) | 18.8% | 0.092 µM [rising, full curve, poor fit] | 1.64 µM [rising, partial curve]
38 | CC(C)CN(C(=O)c1cccs1)C1CCS(=O)(=O)C1 (centres undefined) | -2.45% |  | 29.1 µM [rising, single point]
39 | Cc1ccc(C)c(NC(=O)C2CCCN(S(=O)(=O)c3cccnc3)C2)c1 (centres undefined) | 75.8% | 14.6 µM [rising, partial curve, poor fit] | 29.1 µM [rising, partial curve]
40 | CCOC(=O)c1nnn(-c2nonc2N)c1COc1ccccc1 | 13.1% |  | 0.461 µM [rising, single point]

Row | Compound | cell number change | AC50 [1] | AC50 [2]
41 | CCOc1ccc(-n2c(SCC(=O)NC)nnc2-c2ccco2)cc1 | 1.05% |  | 
42 | CCOC(=O)c1nn(-c2cccc(C)c2)cc1C(=O)c1ccccc1 | 0.738% | 0.517 µM [rising, single point] | 29.1 µM [rising, single point]
43 | CS(=O)(=O)N1CCC(Oc2ccccc2C(=O)N2CCCCC2CO)CC1 (centres undefined) |  |  | 2.06 µM [falling, partial curve]
44 | Cc1nc2c(C(=O)NCCC(C)C)c[nH]n2c(=O)c1Cl | 13% |  | 6.51 µM [falling, single point]
45 | CN(c1ccccc1)C1CCCCC1NS(=O)(=O)c1ccc(Cl)cc1 (centres undefined) | -0.853% |  | 1.16 µM [falling, single point]
46 | CC(C)(C)c1ccccc1OCC(=O)NCCCn1ccnc1 | 4.2% |  | 29.1 µM [rising, single point]
47 | O=C(NCc1cccc2ccccc12)c1cccs1 | 5.43% | 0.00461 µM [falling, full curve, poor fit] | 
48 | CC(C)(C)c1ccc(C(=O)N2CCN(CCNC(=O)C(=O)NCc3ccc(Cl)cc3)CC2)cc1 | -45.9% | 25.9 µM [falling, partial curve] | 2.91 µM [rising, partial curve, poor fit]
49 | Cc1ccc(C(=O)NCCc2ccccc2)cc1S(=O)(=O)N1CCOCC1 | -16.8% |  | 
50 | CCOc1ccc(N(CC(=O)Nc2ccc(CC)cc2)S(=O)(=O)c2c(C)[nH]c(=O)[nH]c2=O)cc1 |  |  | 0.116 µM [rising, single point]
51 | O=C(CSc1nnc(NC(=O)c2ccccc2F)s1)Nc1ccccc1F | -11.7% | 0.82 µM [falling, single point] | 
52 | COc1ccc(N2CCN(C3CCCN(C(=O)CSC)C3)CC2)cc1 (centres undefined) | 12.6% |  | 29.1 µM [rising, single point]
53 | COc1cc(/C=N/NC(=O)c2cc[n+]([O-])cc2)cc(OC)c1OC | 1.01% |  | 6.51 µM [rising, single point]
54 | c1ccc(-c2cc(-c3ccc(N4CCOCC4)cc3)nc3ccccc23)cc1 | -6.68% |  | 
55 | Cc1cccc2c(C(=O)O)c3c(nc12)CCCCC3 |  |  | 20.6 µM [falling, partial curve]
56 | COc1cc(OC)c(C2=NOC(C(=O)NCc3cccnc3)C2)cc1Cl (centres undefined) | -2.35% |  | 0.00517 µM [rising, full curve, poor fit]
57 | CCOc1ccc(NC(=O)Nc2cc(C)ccc2F)cc1 |  |  | 0.146 µM [falling, full curve, poor fit]
58 | COc1ccccc1COc1ccc2c(C)c(CC(=O)O)c(=O)oc2c1C | -1.39% |  | 6.51 µM [falling, single point]
59 | CCCCC1S/C(=N/N=C/c2ccco2)NC1=O (centres undefined) | -1.37% |  | 29.1 µM [rising, single point]
60 | NNC(=O)COc1cccc(Oc2ccccc2)c1 | 23.3% |  | 4.11 µM [rising, full curve]

Reformatted as labelled records: entries from further up.
CC(C)(C)c1ccccc1OCC(=O)NCCCn1ccnc1
  cell number change: 4.2%
  AC50 [2]: 29.1 µM [rising, single point]
CC(C)(C)c1ccc(C(=O)N2CCN(CCNC(=O)C(=O)NCc3ccc(Cl)cc3)CC2)cc1
  cell number change: -45.9%
  AC50 [1]: 25.9 µM [falling, partial curve]
  AC50 [2]: 2.91 µM [rising, partial curve, poor fit]
COc1cc(/C=N/NC(=O)c2cc[n+]([O-])cc2)cc(OC)c1OC
  cell number change: 1.01%
  AC50 [2]: 6.51 µM [rising, single point]
